Laboratory results: PubChem BioAssay AID1498 (National Center for Advancing Translational Sciences (NCATS), 2009)
The list shows a part of the results. Shown are side measurements of this screen, not its main read-out; they come without a call. Compounds called inactive in the main read-out are mostly missing here. The note in brackets gives the kind of curve behind each potency; many fits are weak.

Experiment: Confirmation Concentration-Response Assay for Modulators of Lamin A Splicing
Conditions: HeLa lamin A splicing GFP/RFP minigene, Acumen, 48 h; for ratio activity: GFP/RFP ratio at top concentration; for ratio activity / RFP activity: at 46.1 µM; for RFP activity: RFP channel at top concentration
Description: NCGC Assay Overview: Hutchinson-Gilford Progeria Syndrome (HGPS) is a pediatric premature aging disease caused by a spontaneous mutation in the lamin A/C (LMNA) gene. The mutation activates a cryptic splice site in the LMNA pre-mRNA which results in production of a pre-lamin A protein that cannot be processed properly. The mutant protein accumulates in the nucleus and negatively affects numerous cellular functions. Correction of the splicing defect in HGPS patient cells using a targeted oligonucleotide (exo11) leads to reversal of the cellular disease phenotypes. To identify small molecule modulators of aberrant LMNA splicing, a homogenous assay was constructed in HeLa cells that used a GFP containing minigene to report on correction of aberrant splicing in lamin A and a RFP (DsRed2) to report on cell viability, uniformity and nonspecific effects on the assay signal. This assay was adapted to laser-scanning microplate cytometry (Acumen, TTP Labtech) where miniaturization of the assay to a 1,536-well plate format was possible. Select compounds active in the primary screen (AID 1487) were chosen for confirmation based on potency, efficacy, SAR and activity in other assays in PubChem and at NCGC. References: Bowen, W. P.; Wylie, P. G. Application of Laser-Scanning Fluorescence Microplate Cytometry in High Content Screening. Assay Drug Dev Technol 2006;4:209-221. Scaffidi P, Misteli T. Reversal of the cellular phenotype in the premature aging disease Hutchinson-Gilford progeria syndrome. Nat. Med. 2005;11:440-445.
NCGC Assay Protocol Summary: Reagents/Controls: Stable clones expressing DsRed2 and lamin A-EGFP were generated by Cell and Molecular Technologies in S3 HeLa cells. HeLa cells were prepared for the assay when they were 70-90% confluent. The cells were counted and resuspended in Opti-MEM I (no phenol red; Gibco), 2% FBS, 1% penicillin/ streptomycin (Gibco) at concentration of 120 cells/uL concentration. The suspension was passed through a Falcon basket filter with pore size 40um (Beckton Dickson). Control titrations: column […] 1536-well plate contained a sixteen point titration (1:2 dilutions) in duplicate of ancitabine (Sigma: A8598) beginning at 40 uM final concentration. Column 2 contained a sixteen point titration (1:2 dilutions) of cycloheximide beginning at 1.4 mM final concentration. Column 3 contained ancitabine at 40 uM and column 4 contained was the vehicle control (0.5% DMSO final concentration). Assay Steps: 5 uL of HeLa cells were plated in Aurora LoBase black clear bottom (cyclic-olefin polymer) 1536-well plates at a final density of 600 cells/well. Controls and library compounds were added with a 1536-well pin array using the Kalypsys pin-tool. The plates were then incubated for 48 hrs in a cell-culture incubator (37 °C; 5% CO2, 98% humidity). Following incubation the plates were read on the Acumen Explorer using the 488 nm laser. Data was collected on objects between 10 and 100 um in size. Cell objects were defined by a 15 um width x 10 um depth filter. The ratio of the total object intensity in PMT1 (500-530 nm emission; GFP) over PMT3 (575-640 nm emission; RFP) was calculated for analysis. Keywords: NIH Roadmap, MLSCN, MLI, MLSMR, qHTS, NCGC, lamin A, Progeria, RNA splicing.

[1] = measured here: GFP/RFP ratio splicing readout
[2] = measured here: RFP viability/nonspecific counter channel

Structure (SMILES) | ratio activity | RFP activity | AC50 [1] | AC50 [2]
CC(C)c1oc(=O)cc2c1[C@@H](O)[C@H]1OC(=O)[C@@]3(C)C[C@@H](O)[C@@H](O)[C@@]2(C)C13 (some centres not stated) | -40.9% | -75.4% | 7.94 µM [falling, full curve, poor fit] | 15.8 µM [falling, full curve, poor fit]
CC1CC(C)C(=O)[C@H](C(O)CC2CC(=O)NC(=O)C2)C1 (some centres not stated) | -37.2% | -97.1% | 0.1 µM [falling, full curve] | 5.01 µM [falling, full curve]
C[C@@H]1O[C@@H](O[C@H]2C[C@@H](O)[C@]3(CO)[C@@H]4C(CC[C@]3(O)C2)[C@@]2(O)CC[C@H](C3=CC(=O)OC3)[C@@]2(C)C[C@H]4O)[C@H](O)[C@H](O)[C@H]1O (some centres not stated) | -50% | -5.97% | 0.316 µM [falling, full curve] | 
O=C(O)c1ccccc1-c1c2cc(Br)c(=O)cc-2oc2[c]([Hg])c(O)c(Br)cc12 | -100% | -100% | 7.94 µM [rising, full curve] | 3.98 µM [falling, full curve]
COc1cc(OC)c(/C=C2/C(=O)Nc3ccccc32)c(OC)c1 | -36.4% | -20.8% | 12.6 µM [falling, partial curve, poor fit] | 8.91 µM [falling, full curve, poor fit]
NC(=O)c1cn(C2OC(CO)C(O)C2O)c2ncnc(N)c12 (configuration not stated) | -35.6% | -91.7% | 0.708 µM [falling, full curve, poor fit] | 
